Laboratory results: publication PMC4342346

Target: Rp1-D21 (maize)
Assay: co-IP; EGFP- and 3×HA-tagged constructs transiently co-expressed in N. benthamiana, leaves collected at 30 hpi; extract in 50 mM HEPES pH 7.5, 50 mM NaCl, 10 mM EDTA, 0.5% Triton, 4 mM DTT; immunoprecipitated with anti-GFP microbeads 3 hrs at 4°C, washed with 150 mM NaCl buffer; blots with anti-GFP and anti-HA

Row | binding | Substance
1 | binds | Rp1-dp2 (from UniProt A0A0D3MN54)
2 | no binding | Rp1-D (from UniProt Q9SWU0)

These are yes or no findings as the source states them, for the method shown. In cells and extracts the contact can be indirect. A result given as binding can be weak or reduced; the word gives no strength.
